{"sequences": {"note": "Chains of the proteins cited; added tags and fusions are not shown. Lines headed by an entry give the natural chain unless they say otherwise; changes in a name come on top.", "UniProt O13988": "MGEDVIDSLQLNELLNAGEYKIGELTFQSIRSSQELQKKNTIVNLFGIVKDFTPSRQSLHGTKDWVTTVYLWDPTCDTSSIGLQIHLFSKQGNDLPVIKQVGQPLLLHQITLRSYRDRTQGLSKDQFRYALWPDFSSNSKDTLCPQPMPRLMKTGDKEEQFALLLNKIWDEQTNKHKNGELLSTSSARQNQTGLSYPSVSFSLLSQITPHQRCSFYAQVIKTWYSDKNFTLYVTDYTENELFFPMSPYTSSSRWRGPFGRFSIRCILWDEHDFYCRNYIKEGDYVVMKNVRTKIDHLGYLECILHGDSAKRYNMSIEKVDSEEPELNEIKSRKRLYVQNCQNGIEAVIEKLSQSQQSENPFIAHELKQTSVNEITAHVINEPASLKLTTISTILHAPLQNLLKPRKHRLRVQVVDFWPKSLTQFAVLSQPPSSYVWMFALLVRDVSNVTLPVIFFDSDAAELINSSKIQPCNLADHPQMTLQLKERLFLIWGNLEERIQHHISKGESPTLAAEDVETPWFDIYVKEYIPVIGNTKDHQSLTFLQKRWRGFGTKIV", "UniProt O14246": "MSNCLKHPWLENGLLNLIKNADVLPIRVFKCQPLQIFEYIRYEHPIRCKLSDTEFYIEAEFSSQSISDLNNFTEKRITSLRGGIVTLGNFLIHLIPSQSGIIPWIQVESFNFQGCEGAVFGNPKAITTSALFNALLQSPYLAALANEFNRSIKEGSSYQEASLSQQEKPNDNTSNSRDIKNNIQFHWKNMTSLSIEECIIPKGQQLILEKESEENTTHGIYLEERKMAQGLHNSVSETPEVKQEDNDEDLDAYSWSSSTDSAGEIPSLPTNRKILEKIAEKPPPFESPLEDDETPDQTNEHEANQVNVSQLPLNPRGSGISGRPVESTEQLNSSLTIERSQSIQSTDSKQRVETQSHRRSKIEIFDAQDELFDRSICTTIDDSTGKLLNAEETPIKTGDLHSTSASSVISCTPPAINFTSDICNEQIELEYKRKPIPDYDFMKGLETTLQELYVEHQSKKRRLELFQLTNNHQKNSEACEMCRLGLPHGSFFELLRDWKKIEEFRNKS"}, "source": "paper PMC9333443", "about": "“Structural insights into Pot1-ssDNA, Pot1-Tpz1 and Tpz1-Ccq1 Interactions within fission yeast shelterin complex” (PLoS Genetics, 2022)", "key": {"[1]": {"molecular_target": "Pot1OB3 (Pot1 372-555), purified (S. pombe) (UniProt O13988)", "experiment": "SEC; co-expressed and co-purified complexes on gel filtration (calibrated for Tpz1CBM-Ccq1TAD); 25 mM Tris-HCl pH 8.0, 150 mM NaCl, 5 mM dithiothreitol; both purified"}, "[2]": {"molecular_target": "Pot1OB3 (Pot1 372-555), purified (S. pombe) (UniProt O13988)", "experiment": "crystal structure; Pot1OB3-Tpz1PIM complex, SAD, 2.6 Å; sitting drop at 4°C, 25% PEG8000, 100 mM sodium citrate, 100 mM Tris-HCl pH 8.0; both purified"}}, "note": "Results are given in words; binding and its absence hold for the method and conditions named. Binding calls can cover weak binding; strength is not graded here. For some assays here: Binding seen in cells or lysates may run through a third protein."}
{"substance": "Tpz1PIM (Tpz1 185-212), purified (from UniProt O14246) (domain or fragment)", "values": [{"measurement": "binding", "setting": "[1]", "value": "binds"}, {"measurement": "binding", "setting": "[2]", "value": "binds"}]}
